Our source for the binding values is article PMC10081768.

The experiment addresses T1, HMP-1::GFP/α-catenin (C. elegans (endogenous in embryos)) (UniProt P90947).
T1 sequence: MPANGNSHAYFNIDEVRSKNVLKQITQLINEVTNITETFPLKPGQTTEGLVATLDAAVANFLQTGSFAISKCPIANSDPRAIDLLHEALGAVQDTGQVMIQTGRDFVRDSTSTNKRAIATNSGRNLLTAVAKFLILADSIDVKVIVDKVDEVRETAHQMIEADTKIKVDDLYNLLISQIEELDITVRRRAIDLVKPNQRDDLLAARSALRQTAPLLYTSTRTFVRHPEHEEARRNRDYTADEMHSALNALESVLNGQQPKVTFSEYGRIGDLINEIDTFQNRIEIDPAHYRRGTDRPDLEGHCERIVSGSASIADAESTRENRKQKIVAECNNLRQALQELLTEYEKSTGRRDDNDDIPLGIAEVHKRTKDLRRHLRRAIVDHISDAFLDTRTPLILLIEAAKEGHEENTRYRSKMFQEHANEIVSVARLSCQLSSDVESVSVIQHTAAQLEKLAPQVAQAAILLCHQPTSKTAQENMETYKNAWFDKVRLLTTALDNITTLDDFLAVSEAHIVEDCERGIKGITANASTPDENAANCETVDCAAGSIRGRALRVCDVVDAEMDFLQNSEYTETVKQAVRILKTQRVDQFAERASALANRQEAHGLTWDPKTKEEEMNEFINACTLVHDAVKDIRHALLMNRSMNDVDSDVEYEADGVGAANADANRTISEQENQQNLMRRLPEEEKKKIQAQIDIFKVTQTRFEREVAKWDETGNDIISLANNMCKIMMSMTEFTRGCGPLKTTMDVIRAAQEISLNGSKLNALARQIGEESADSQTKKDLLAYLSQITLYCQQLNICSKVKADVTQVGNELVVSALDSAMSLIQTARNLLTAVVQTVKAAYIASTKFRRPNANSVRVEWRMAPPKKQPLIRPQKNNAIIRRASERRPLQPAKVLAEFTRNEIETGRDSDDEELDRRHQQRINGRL
As to the kind of experiment: affinity purification with mass spectrometry; single-step immunoprecipitation with anti-GFP coupled agarose beads from extracts of C. elegans embryos enriched for <50 cells, strain with endogenously tagged HMP-1::GFP; strain with soluble GFP alone as control; lysis buffer 20 mM Tris-HCl pH 7.9, 150 mM NaCl, 10% glycerol, 0.5 mM DTT, 0.05% Triton-X 100; LC-MS/MS.

Results are given in words; binding and its absence hold for the method and conditions named. In cells and extracts the contact can be indirect. These calls come from enrichment with a bait or labelling near it, and not all partners need be listed. Where a sequence is shown, tags or fusion partners need not be part of it.

B1: HMP-2/β-catenin (protein, UniProt O44326 1-678)
chain: MLLHSTNSYSIFTDHEVETRTSRIRSAMFPDWIPPTSAAEATNSTTSIVEMMQMPTQQLKQSVMDLLTYEGSNDMSGLSLPDLVKLMCDHDESVVARAVHRAYMLSREDPNFFNAPGFDHRSFVEALMAASKSSNVNVRRNAIGALSHMSEQRGGPLLIFRSGGLAEIIRMLYDSLESVVHYAVTTLRNLLMHVSDSRAQARALNAVEALTPHLHKTNPKLLAQVADGLYFLLIDDAPSKITFLSLLGPQILVSILREYSDHRKLIYTVVRCIRSLSVCPSNKPALISLGCLPALYVELCTAKDERSQTAILVAMRNLSDSATNEENLTQLIIKLLEIIRVANDGMTACACGTLSNLTCNNTRNKQTVCSHGGIDALVTAIRRLPEVEEVTEPALCALRHCTARHSLAEEAQSELRFCQAFPVILDQLETLRTPVIKAALGVIRNSALLQTNLIELTQEQTANGHTAVSLTMDILRRAITAIEENPDIAVDGVPMWGVIEGAVSALHQLANHPAVAAACCDDIGQVGNPECPPFLDLLHRLLAHPRLGSMDDEVLEREILGLLYQLSKRPDGARAVESTGVSALLMESRGSQYKSVVTYANGVLSNLKRGDSAAIMNMSNSYDYEMSGSAADWQRDGLERELFAEMYPTNDGGHSESINMALNNSQMRPNHNWYDTDL
In the case of B1, the binding entry is given as “binds”.
